Assay results published in paper PMC11193246.
Results are given in words; binding and its absence hold for the method and conditions named. In cells and extracts the contact can be indirect. Some results given as binding are weak or reduced against the parent protein; the word gives no strength.

Amino acid sequences for entries named in this document (tags omitted).
UniProt Q14790: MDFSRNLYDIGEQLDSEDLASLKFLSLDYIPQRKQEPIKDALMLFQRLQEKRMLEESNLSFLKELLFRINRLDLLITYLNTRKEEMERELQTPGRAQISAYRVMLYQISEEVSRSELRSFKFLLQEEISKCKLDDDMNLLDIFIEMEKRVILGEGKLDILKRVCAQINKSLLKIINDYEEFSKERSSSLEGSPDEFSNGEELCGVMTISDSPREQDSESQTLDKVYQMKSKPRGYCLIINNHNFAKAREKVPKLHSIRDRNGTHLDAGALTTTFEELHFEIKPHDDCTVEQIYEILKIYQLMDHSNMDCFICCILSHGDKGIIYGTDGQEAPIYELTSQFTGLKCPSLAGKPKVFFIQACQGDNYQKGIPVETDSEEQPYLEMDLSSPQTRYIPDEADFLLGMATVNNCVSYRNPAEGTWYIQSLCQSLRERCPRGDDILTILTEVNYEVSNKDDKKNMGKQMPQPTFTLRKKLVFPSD

Biological target: caspase-8 (human (endogenous in OCI-AML3)) (UniProt Q14790)
Experiment: co-IP; endogenous proteins in OCI-AML3 cell lysate (IP lysis buffer); protein A/G beads with the indicated primary antibodies or isotype IgG at 4 °C overnight; washed three times with PBS-T; Western blot

- binding: binds
B1: tumor protein p53 inducible nuclear protein 2 (protein, UniProt Q8IXH6 1-220)
chain: MFQRLSSLFFSTPSPPEDPDCPRAFVSEEDEVDGWLIIDLPDSYAAPPSPGAAPAPAGRPPPAPSLMDESWFVTPPACFTAEGPGLGPARLQSSPLEDLLIEHPSMSVYVTGSTIVLEPGSPSPLPDAALPDGDLSEGELTPARREPRAARHAAPLPARAALLEKAGQVRRLQRARQRAERHALSAKAVQRQNRARESRPRRSKNQSSFIYQPCQRQFNY
